The supplement of paper PMC12889115
This is one part of the list. These are raw signals, not scaled to a control.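 Primary screen: polymyxin B was added at a level permeabilizing Salmonella outer membranes while sparing inner membranes. DMSO wells, both with and without polymyxin B, established maximum growth. Plate-to-plate variation meant each plate was ranked on its own, and the lowest-OD600 compounds were selected as hits.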

Tested on: Salmonella enterica serovar Typhimurium SL1344
Experiment: bacterial growth OD600 after 18 h with compound and polymyxin B; higher = more bacterial growth (less inhibition)
Conditions: 50 µM, Mueller-Hinton broth

SMILES | bacterial growth OD600 (polymyxin B 0.75 µg/mL) | bacterial growth OD600 (polymyxin B 1 µg/mL)
Cc1cc(C)n(CCNC(=O)c2cc(NC(=O)CC3CCCC3)cc3nc(C4CCCO4)n(C)c23)n1 (stereo not drawn) | 0.806 | 
CCOC(=O)C1(CCOc2ccccc2)CCN(Cc2ccc(O)cc2)CC1 |  | 0.833
CCc1cc(C(=O)N2CCc3c(cnc(C)c3CNC(=O)c3ccccc3SC)C2)n(C)n1 | 0.875 | 
CCOC(=O)N1CCC(NC2CCN(c3cccc(NC(=O)CCCc4ccccc4)c3)CC2)CC1 | 0.743 | 
CCc1csc(CNC(=O)c2ccc(OCC3(C)CCCNC3)nc2)n1 (stereo not drawn) |  | 1.07
O=C(c1cn(CCN2CCCCC2)nn1)N1CCN(Cc2ccc3c(c2)OCO3)CC1 |  | 0.935
O=C(NCCc1ccccn1)C1(N2CCCCC2)Cc2ccccc2C1 |  | 0.781
Cn1ccnc1CNC(=O)c1cc(CN2CCC(Cc3ccccc3)CC2)on1 | 0.799 | 
